Laboratory results reported in the supplement of paper PMC10849652.
Some of the results follow.

Protein sequences, listed by entry. Tags and fused reporters are not part of them. Lines headed by an entry give the natural chain unless they say otherwise; changes in a name come on top.
UniProt Q99453, whole entry, looked up: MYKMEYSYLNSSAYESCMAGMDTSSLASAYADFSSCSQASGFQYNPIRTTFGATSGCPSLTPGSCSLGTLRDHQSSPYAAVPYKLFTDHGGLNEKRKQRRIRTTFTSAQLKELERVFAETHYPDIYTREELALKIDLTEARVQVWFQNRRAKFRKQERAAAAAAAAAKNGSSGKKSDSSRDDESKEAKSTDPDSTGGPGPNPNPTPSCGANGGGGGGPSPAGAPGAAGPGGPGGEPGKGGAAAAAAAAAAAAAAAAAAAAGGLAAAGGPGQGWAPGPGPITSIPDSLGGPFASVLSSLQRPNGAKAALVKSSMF
UniProt O14986: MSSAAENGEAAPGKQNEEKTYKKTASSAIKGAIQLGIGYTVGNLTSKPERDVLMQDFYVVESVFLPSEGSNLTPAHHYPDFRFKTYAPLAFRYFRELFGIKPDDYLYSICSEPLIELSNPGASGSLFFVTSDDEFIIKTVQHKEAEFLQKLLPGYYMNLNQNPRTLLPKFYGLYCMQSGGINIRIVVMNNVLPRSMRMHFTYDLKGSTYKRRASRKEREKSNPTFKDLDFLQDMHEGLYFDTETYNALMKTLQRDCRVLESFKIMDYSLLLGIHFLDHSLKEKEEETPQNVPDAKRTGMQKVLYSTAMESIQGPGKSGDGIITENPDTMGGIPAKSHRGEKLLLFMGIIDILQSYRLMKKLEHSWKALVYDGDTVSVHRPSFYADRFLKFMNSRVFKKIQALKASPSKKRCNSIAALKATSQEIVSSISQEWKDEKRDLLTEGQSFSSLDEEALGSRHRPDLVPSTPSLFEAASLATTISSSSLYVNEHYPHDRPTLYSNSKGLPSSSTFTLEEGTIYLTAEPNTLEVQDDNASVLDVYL
UniProt Q99640: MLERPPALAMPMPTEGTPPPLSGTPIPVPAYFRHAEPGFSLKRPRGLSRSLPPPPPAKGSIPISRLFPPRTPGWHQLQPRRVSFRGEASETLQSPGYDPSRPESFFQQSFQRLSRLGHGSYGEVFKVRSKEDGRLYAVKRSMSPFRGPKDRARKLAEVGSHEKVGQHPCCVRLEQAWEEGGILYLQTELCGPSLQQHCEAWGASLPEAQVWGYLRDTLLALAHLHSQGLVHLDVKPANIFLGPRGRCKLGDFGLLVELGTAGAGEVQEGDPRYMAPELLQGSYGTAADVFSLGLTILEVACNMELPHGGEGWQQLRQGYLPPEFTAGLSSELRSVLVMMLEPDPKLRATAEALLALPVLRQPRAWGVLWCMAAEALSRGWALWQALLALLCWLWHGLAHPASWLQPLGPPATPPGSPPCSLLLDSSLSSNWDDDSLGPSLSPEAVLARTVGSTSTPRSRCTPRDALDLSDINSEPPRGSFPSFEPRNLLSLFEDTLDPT
UniProt Q9BRB3: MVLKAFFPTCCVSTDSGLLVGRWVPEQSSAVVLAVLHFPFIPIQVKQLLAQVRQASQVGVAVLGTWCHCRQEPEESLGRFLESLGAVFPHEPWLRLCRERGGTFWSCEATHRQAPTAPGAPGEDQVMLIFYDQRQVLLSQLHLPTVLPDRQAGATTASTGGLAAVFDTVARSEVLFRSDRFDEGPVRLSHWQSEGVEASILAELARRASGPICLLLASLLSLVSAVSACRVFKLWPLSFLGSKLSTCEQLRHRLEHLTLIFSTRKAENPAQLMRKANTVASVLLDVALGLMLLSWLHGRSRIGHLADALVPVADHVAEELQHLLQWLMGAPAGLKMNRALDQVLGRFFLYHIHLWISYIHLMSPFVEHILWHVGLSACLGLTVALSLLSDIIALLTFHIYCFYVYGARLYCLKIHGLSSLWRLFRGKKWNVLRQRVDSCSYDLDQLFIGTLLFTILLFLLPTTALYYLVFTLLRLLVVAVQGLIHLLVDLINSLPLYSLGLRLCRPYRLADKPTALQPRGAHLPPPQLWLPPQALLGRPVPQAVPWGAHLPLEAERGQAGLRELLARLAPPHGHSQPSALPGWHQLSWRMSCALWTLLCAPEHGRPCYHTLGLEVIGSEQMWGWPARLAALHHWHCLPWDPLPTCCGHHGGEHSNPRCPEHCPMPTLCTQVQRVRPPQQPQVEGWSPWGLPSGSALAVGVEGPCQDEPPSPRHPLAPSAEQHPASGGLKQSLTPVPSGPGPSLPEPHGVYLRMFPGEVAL
UniProt Q8IXK0: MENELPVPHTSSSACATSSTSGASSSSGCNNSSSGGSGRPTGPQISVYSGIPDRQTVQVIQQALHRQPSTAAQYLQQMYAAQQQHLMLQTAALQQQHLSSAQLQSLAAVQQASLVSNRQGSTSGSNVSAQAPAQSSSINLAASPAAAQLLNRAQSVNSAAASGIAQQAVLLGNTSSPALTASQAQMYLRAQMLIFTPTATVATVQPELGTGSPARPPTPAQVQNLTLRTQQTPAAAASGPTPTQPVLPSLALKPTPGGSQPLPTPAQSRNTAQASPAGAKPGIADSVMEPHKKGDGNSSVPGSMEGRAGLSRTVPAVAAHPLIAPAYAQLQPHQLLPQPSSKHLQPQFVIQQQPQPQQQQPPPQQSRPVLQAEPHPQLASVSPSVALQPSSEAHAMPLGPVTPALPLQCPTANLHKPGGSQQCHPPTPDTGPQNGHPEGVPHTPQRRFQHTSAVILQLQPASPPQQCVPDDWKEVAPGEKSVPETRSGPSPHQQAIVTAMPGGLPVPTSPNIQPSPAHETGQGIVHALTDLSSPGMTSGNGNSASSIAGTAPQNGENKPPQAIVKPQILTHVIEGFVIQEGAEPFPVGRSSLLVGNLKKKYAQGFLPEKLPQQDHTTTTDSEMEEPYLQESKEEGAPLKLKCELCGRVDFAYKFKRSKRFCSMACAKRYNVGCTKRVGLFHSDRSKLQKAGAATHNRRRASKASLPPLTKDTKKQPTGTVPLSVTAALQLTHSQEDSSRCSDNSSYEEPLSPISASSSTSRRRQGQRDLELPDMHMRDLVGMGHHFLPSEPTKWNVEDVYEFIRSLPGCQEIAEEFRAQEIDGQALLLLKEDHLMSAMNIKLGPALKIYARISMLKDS
UniProt P78364: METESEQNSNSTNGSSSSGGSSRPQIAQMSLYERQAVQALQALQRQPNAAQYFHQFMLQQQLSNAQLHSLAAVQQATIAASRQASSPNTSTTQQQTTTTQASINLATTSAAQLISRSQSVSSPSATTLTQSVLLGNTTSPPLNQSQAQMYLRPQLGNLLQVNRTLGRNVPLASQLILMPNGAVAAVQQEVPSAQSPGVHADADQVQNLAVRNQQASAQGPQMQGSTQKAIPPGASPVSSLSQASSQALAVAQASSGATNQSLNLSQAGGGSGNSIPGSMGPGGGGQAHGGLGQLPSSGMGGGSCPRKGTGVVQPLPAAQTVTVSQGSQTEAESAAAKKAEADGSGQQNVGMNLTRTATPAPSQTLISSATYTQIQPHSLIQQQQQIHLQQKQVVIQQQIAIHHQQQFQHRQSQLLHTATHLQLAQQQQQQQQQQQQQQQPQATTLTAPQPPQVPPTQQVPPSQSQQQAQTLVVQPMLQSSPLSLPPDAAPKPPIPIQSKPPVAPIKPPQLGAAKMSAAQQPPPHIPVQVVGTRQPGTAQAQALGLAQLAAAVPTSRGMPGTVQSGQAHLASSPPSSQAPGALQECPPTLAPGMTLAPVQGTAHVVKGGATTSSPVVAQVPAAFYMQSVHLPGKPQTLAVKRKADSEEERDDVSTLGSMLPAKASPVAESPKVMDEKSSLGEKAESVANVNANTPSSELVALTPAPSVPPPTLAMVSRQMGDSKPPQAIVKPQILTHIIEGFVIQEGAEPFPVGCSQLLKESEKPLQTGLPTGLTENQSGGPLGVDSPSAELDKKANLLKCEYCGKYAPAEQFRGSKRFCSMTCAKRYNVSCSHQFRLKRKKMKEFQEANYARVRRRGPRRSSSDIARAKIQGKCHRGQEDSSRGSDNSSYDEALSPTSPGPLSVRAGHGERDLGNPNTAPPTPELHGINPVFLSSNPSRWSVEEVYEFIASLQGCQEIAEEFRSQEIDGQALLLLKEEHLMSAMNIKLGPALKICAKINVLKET
UniProt Q8TBF5: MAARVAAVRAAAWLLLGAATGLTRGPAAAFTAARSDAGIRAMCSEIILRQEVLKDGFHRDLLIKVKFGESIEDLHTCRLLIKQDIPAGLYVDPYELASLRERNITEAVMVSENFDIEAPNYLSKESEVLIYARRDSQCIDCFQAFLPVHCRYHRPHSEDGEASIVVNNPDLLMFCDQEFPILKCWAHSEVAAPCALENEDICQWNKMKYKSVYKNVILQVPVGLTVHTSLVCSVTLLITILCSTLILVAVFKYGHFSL
UniProt Q92521: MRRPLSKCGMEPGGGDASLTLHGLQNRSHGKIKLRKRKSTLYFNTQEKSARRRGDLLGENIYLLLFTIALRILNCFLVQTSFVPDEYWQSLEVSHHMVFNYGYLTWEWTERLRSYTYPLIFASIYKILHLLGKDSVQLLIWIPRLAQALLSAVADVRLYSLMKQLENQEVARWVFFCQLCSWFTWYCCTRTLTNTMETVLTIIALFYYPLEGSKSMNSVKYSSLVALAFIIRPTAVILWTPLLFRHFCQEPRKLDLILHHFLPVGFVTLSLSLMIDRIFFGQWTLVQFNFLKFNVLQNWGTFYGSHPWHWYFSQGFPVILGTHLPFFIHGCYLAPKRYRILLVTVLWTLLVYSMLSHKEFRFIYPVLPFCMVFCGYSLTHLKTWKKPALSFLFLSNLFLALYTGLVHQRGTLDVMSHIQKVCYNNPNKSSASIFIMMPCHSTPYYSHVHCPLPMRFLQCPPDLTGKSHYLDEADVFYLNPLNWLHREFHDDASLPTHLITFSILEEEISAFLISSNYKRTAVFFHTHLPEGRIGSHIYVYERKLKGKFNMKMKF
UniProt Q96JA3: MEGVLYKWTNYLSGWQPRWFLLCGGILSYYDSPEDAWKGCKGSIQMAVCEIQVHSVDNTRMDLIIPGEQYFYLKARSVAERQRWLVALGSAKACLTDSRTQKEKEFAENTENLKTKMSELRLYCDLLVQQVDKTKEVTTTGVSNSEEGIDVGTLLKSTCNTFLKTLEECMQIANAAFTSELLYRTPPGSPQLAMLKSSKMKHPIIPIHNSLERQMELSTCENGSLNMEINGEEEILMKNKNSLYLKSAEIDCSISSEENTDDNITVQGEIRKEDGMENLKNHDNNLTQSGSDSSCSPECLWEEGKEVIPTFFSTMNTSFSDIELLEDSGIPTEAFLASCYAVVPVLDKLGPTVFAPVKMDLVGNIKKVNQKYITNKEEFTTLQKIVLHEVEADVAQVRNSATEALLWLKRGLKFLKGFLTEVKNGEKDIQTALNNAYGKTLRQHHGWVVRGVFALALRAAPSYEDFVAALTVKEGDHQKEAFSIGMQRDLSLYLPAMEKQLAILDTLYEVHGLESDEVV
UniProt Q9C010: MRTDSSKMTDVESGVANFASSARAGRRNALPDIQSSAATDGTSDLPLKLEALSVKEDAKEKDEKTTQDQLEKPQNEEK
UniProt Q99569: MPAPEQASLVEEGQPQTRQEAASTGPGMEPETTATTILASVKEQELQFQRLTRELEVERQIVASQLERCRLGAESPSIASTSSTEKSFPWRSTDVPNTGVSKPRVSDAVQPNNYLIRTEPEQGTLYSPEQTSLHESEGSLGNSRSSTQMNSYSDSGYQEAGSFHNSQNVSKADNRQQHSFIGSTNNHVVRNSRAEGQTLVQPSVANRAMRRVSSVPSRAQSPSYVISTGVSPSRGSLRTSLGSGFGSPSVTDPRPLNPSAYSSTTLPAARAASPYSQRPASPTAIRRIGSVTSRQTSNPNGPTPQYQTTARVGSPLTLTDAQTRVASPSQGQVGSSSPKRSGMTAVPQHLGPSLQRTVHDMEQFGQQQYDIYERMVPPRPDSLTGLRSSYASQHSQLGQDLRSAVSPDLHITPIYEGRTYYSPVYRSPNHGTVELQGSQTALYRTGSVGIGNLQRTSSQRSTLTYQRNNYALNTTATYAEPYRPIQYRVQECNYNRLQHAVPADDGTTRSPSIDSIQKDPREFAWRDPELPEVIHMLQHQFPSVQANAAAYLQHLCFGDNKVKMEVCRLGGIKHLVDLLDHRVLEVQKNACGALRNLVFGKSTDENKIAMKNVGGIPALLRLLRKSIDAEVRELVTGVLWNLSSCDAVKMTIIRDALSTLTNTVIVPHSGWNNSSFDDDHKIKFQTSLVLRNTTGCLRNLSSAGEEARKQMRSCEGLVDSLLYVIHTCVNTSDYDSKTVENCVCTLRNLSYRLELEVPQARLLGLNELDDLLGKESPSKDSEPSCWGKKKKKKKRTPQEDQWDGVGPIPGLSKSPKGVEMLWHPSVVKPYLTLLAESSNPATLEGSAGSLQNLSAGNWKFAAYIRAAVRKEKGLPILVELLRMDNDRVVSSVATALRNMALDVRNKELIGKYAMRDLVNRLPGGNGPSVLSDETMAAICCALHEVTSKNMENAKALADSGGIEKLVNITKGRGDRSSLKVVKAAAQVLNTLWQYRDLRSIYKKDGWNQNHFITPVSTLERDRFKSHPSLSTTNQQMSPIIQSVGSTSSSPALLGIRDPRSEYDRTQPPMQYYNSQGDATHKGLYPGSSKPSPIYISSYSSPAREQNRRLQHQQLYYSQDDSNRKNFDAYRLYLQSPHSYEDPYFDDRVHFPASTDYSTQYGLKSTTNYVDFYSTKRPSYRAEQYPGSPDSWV

Experiments:
Test in all cases: log2 fold change, soluble protein after heating vs DMSO (PISA); higher = thermal stabilisation; K562 lysate, 10 uM; active = over 0.2 and 3.5 SD of the protein, either way, in both replicates (recomputed)
erlotinib = compound: C#Cc1cccc(Nc2ncnc3cc(OCCOC)c(OCCOC)cc23)c1 [erlotinib]
Method in brief: (§1)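 Log-two fold change in thermal stability relative to solvent controls is reported from duplicates. For each sample, crude K562 extract from dounce-homogenised pellets in PBS pH 7.4 with 1 mM MgCl2, at 1 mg/mL protein, was treated with 10 μM compound for 30 min. Aliquots heated for 3 min across 48°C-58°C were pooled, brought to 0.5% NP-40 at 4°C and cleared at 21,000xg for 90 min. The supernatant was quantified by TMTpro 16plex LC-MS/MS with channel sums equalised.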

[1] = compound: C/C(=N\NC(=O)C1=CC(=CC=C1)S(=O)(=O)N2CCOCC2)/C3=C(C=CC(=C3)Cl)O
Method in brief: as §1

[2] = compound: C1=CC(=CC=C1C2=NC3=C(N2)C=C(C=C3)C(=O)N)OC4=CC=C(C=C4)Cl
Method in brief: as §1

[3] = compound: C1=CC2=C(C=CC(=C2)/C=C\3/C(=O)NC(=NCC4=CC=CS4)S3)N=C1
Method in brief: as §1

[4] = compound: C1=CC=C(C=C1)C2=NC(=C(N2)C3=CC=NC=C3)C4=CC(=C(C=C4)Cl)O
Method in brief: as §1

[5] = compound: C1=CC=C2C(=C1)C3=NNC4=CC=CC(=C43)C2=O
Method in brief: as §1

[6] = compound: C1CCN(C1)C(=O)NC2=CC=CC(=C2)NC3=NC=C(C(=N3)NCCC4=CN=CN4)Br
Method in brief: as §1

[7] = compound: C1CN(CCC1(CC2=CC=C(C=C2)Cl)N)C3=NC=NC4=C3C=CN4
Method in brief: as §1

IRAK-1-4 Inhibitor I = compound: C1COCCN1CCN2C3=CC=CC=C3N=C2NC(=O)C4=CC(=CC=C4)[N+](=O)[O-] [IRAK-1-4 Inhibitor I]
Method in brief: as §1

[8] = compound: C1=CC2=NC=CN=C2C=C1/C=C/3\C(=O)NC(=O)S3
Method in brief: as §1

Measured: log2 fold change

PIAS2 (UniProt O75928)
inactive: erlotinib 0.043 | [1] -0.277 | [2] 0.035 | [3] 0 | [4] 0.019 | [5] 0.039 | [6] 0.037 | [7] -0.002 | IRAK-1-4 Inhibitor I 0.053

PHLPP1 (UniProt O60346)
inactive: erlotinib 0.163 | [1] 0.039 | [2] -0.035 | [3] 0.012 | [8] -0.065 | [4] -0.014 | [5] -0.011 | IRAK-1-4 Inhibitor I 0.048

PKM (UniProt H3BTN5)
inactive: erlotinib -0.186 | [1] -0.052 | [2] -0.087 | [3] -0.07 | [8] 0.052 | [5] 0.047 | [6] 0.021 | [7] 0.024

PIGH (UniProt Q14442)
inactive: erlotinib -0.02 | [1] 0.035 | [2] 0.071 | [3] -0.022 | [8] 0.143 | [5] -0.095

PLAUR (UniProt Q03405)
inactive: erlotinib -0.055 | [2] -0.091 | [6] 0.033 | [7] -0.046

PIK3C2A (UniProt O00443)
inactive: erlotinib -0.038 | [2] 0.043 | [8] -0.017 | [4] 0.02 | [6] -0.037 | [7] 0.039 | IRAK-1-4 Inhibitor I 0.005

PLEKHG2 (UniProt Q9H7P9)
inactive: erlotinib -0.039 | [2] 0.1 | [6] -0.011 | [7] 0.096

PLAU (UniProt P00749)
inactive: erlotinib -0.085 | [2] -0.101 | [4] -0.02 | [6] 0.01 | [7] -0.039 | IRAK-1-4 Inhibitor I 0.076

PHETA1 isoform 4 (UniProt Q8N4B1)
inactive: [4] 0.132 | IRAK-1-4 Inhibitor I 0.291

PKLR (UniProt F8W6W2)
inactive: [1] 0 | [3] -0.142 | [5] 0.086

PGM3 (UniProt D6RCQ8)
inactive: [8] 0

PHOX2B (UniProt Q99453)
inactive: [1] 0.04 | [3] -0.088 | [8] -0.188 | [5] 0.05 | [6] -0.044 | [7] -0.153

PHF13 (UniProt Q86YI8)
inactive: [8] 0.029 | [4] -0.064 | IRAK-1-4 Inhibitor I 0.058

PHF20 (UniProt Q9BVI0)
inactive: [4] -0.035 | IRAK-1-4 Inhibitor I 0.01

PIP5K1B isoform 2 (UniProt O14986)
inactive: [8] 0.14

PKMYT1 (UniProt Q99640)
inactive: [1] -0.018 | [3] 0.056 | [4] 0.091 | [5] 0.048 | [6] -0.044 | [7] -0.024 | IRAK-1-4 Inhibitor I 0.002

PLEC isoform 3 (UniProt Q15149)
inactive: [1] -0.124 | [3] -0.239 | [8] 0.019 | [5] -0.19 | [6] 0.015 | [7] 0.053

PHF2 (UniProt O75151)
inactive: [4] 0.339 | IRAK-1-4 Inhibitor I -0.068

PIGQ (UniProt Q9BRB3)
inactive: [1] 0.071 | [3] 0.037 | [8] -0.108 | [5] -0.162 | [6] 0.023 | [7] 0.049

PHC2 isoform 5 (UniProt Q8IXK0)
inactive: [1] -0.207 | [3] 0.089 | [5] 0.002 | [6] -0.062 | [7] 0.082

PGK2 (UniProt P07205)
inactive: [1] 0.059 | [3] 0.127 | [4] -0.022 | [5] -0.003 | [6] -0.207 | [7] -0.034 | IRAK-1-4 Inhibitor I -0.085

PIK3R3 (UniProt Q92569)
inactive: [4] -0.059 | IRAK-1-4 Inhibitor I -0.07

PIK3AP1 (UniProt Q6ZUJ8)
inactive: [8] -0.051 | [4] -0.02 | [6] -0.031 | [7] -0.114 | IRAK-1-4 Inhibitor I -0.042

PHC1 (UniProt P78364)
inactive: [1] 0.032 | [3] -0.004 | [8] -0.075 | [5] -0.051 | [6] 0.021 | [7] -0.01

PIEZO2 isoform 4 (UniProt Q9H5I5)
inactive: erlotinib 0.013 | [2] -0.05 | [6] -0.02 | [7] -0.003

PITPNM1 (UniProt O00562)
inactive: [8] 0.169 | [4] -0.249 | IRAK-1-4 Inhibitor I 0.006

PLEKHA3 (UniProt Q9HB20)
inactive: [4] -0.007 | IRAK-1-4 Inhibitor I 0.026

PHF19 isoform 2 (UniProt Q5T6S3)
inactive: [1] -0.132 | [3] 0.013 | [8] -0.137 | [5] -0.025 | [6] 0.061 | [7] 0.005

PIGX isoform 2 (UniProt Q8TBF5)
inactive: [8] 0.023 | [4] -0.004 | [6] -0.164 | [7] 0.02 | IRAK-1-4 Inhibitor I 0.068

PIGB (UniProt Q92521)
inactive: [1] 0.142 | [3] 0.202 | [8] -0.058 | [4] 0.109 | [5] -0.033 | [6] -0.163 | [7] 0.148 | IRAK-1-4 Inhibitor I -0.031

PLEKHA8 (UniProt Q96JA3)
inactive: [4] 0.083 | [6] -0.342 | [7] 0.154 | IRAK-1-4 Inhibitor I -0.235

PIGW (UniProt Q7Z7B1)
inactive: [1] -0.181 | [3] -0.089 | [4] 0.067 | [5] -0.014 | IRAK-1-4 Inhibitor I 0.015

PHOSPHO2 (UniProt C9JD35)
inactive: [6] 0.069 | [7] -0.21

PHGDH, A0A286YFE1
inactive: [8] -0.166

PKIB isoform 2 (UniProt Q9C010)
inactive: [4] -0.223 | IRAK-1-4 Inhibitor I -0.056

PHF12 (UniProt Q96QT6)
inactive: [4] 0.289 | IRAK-1-4 Inhibitor I -0.008

PKP4 (UniProt Q99569)
inactive: [4] 0.027 | [6] 0.062 | [7] 0.035 | IRAK-1-4 Inhibitor I -0.03

Three entries picked at random from the list so far:
PHC1 (UniProt P78364)
inactive: [1] 0.032 | [3] -0.004 | [8] -0.075 | [5] -0.051 | [6] 0.021 | [7] -0.01

PITPNM1 (UniProt O00562)
inactive: [8] 0.169 | [4] -0.249 | IRAK-1-4 Inhibitor I 0.006

PKMYT1 (UniProt Q99640)
inactive: [1] -0.018 | [3] 0.056 | [4] 0.091 | [5] 0.048 | [6] -0.044 | [7] -0.024 | IRAK-1-4 Inhibitor I 0.002

Next results:

PHF14 (UniProt O94880)
inactive: [1] 0.032 | [3] -0.01 | [8] -0.06 | [4] -0.086 | [5] 0.045 | [6] -0.423 | [7] 0.432 | IRAK-1-4 Inhibitor I 0.035

PIM2 (UniProt Q9P1W9)
inactive: [4] -0.219 | IRAK-1-4 Inhibitor I -0.019

PITX1 (UniProt P78337)
inactive: [1] 0.097 | [3] 0.013 | [8] -0.069 | [5] -0.157 | [6] -0.101 | [7] 0.054

PIDD1 (UniProt Q9HB75)
inactive: [4] 0.111 | IRAK-1-4 Inhibitor I 0.166
